The values below come from PubChem BioAssay AID256 (DTP/NCI, 2004).

The assay concerns CD2F1 mice, L1210 leukemia ip, survival T/C. In words: NCI In Vivo Anticancer Drug Screen. Data for tumor model L1210 Leukemia (intraperitoneal) in CD2F1 (CDF1) mice. The conditions noted are these: T/C endpoint: mean survival time, higher T/C = longer survival. The gist of the method: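 Mice carrying a transplanted tumor received test compound or vehicle alone. The value is the measurement in the treated group divided by that in the vehicle-treated control group.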

Where [1] appears, read: dose: 15.63 mg/kg/injection, schedule: Q01DX001 (ip), vehicle: DMSO.
Setting [2] is: dose: 31.25 mg/kg/injection, schedule: Q01DX001 (ip), vehicle: DMSO.
Where [3] appears, read: dose: 62.5 mg/kg/injection, schedule: Q01DX001 (ip), vehicle: DMSO.
[4] abbreviates: dose: 125.0 mg/kg/injection, schedule: Q01DX001 (ip), vehicle: DMSO.
The mark [5] stands for this setting: dose: 250.0 mg/kg/injection, schedule: Q01DX001 (ip), vehicle: DMSO.
Setting [6] is: dose: 500.0 mg/kg/injection, schedule: Q01DX001 (ip), vehicle: DMSO.
Setting [7] is: dose: 1000.0 mg/kg/injection, schedule: Q01DX001 (ip), vehicle: DMSO.

The list shows only some results of the screen, not a fair sample: its compounds were picked by chemical class. Other doses and runs of a compound may be missing. T/C is the treated group as % of the vehicle group. Some entries give survivors of the animals treated and no T/C: the source files T/C as zero there, which appears to mark a toxic dose or a test without result, not a measured value. Some survivor counts are full or nearly so, which does not show that the dose was tolerated: survival well below the control is almost never listed, so the zero probably covers shortened survival too. Survivors were counted at the toxicity check, usually on the fifth day, unless a day is given; later deaths do not show. Schedule codes are those of the source, taken here to give the interval after Q, in days (D) or hours (H), and the number of doses after X. Some complexes appear as separate parts, the way the source draws them; their charges need not add up. For survival time, this PubChem deposit counts one and a half times the control or more as active, and values a quarter to a half above the control carry no call in these data; other NCI protocols may use other cut-offs. Some doses were run more than once; the results are listed from low to high. Some T/C values are marked as having no survivor count here; that says nothing about deaths at the dose. Some T/C values carry the count of animals alive at the toxicity check (mostly the fifth day); without a count or a note in brackets, all were alive then.

As to `CC1CN1P(=O)(Nc1ccccn1)N1CC1C` (configuration not stated), the T/C is 104 % of control (dose: 16.5 mg/kg/injection, schedule: Q04DX003 (ip), vehicle: saline); 136 % of control (dose: 29.0 mg/kg/injection, schedule: Q01DX009 (ip), vehicle: carboxymethylcellulose (CMC)); 104 % of control (dose: 33.0 mg/kg/injection, schedule: Q04DX003 (ip), vehicle: saline); 128 % of control (dose: 44.0 mg/kg/injection, schedule: Q01DX009 (ip), vehicle: carboxymethylcellulose (CMC)); 143 % of control (dose: 66.0 mg/kg/injection, schedule: Q01DX009 (ip), vehicle: carboxymethylcellulose (CMC)); 117 % of control (dose: 66.0 mg/kg/injection, schedule: Q04DX003 (ip), vehicle: saline). Moreover, the T/C (dose: 100.0 mg/kg/injection, schedule: Q01DX009 (ip), vehicle: carboxymethylcellulose (CMC)) was 103 % of control; the T/C (dose: 100.0 mg/kg/injection, schedule: Q04DX003 (ip), vehicle: saline with Tween-80) is 123 and 131 % of control; the T/C (dose: 200.0 mg/kg/injection, schedule: Q04DX003 (ip), vehicle: saline with Tween-80) is 89 [4 of 6 alive] and 109 % of control; the T/C (dose: 400.0 mg/kg/injection, schedule: Q04DX003 (ip), vehicle: saline with Tween-80) was 89 and 125 % of control.

Take `COc1ccc(C(O)(C(=O)OCCN2CCCCC2)c2ccc(OC)cc2)cc1`: the T/C (dose: 75.0 mg/kg/injection, schedule: Q01DX001 (ip), vehicle: saline) was 98 % of control.

As for `O=[N+]([O-])c1cc(Cl)c(O)c([N+](=O)[O-])c1`, the T/C (dose: 25.0 mg/kg/injection, schedule: Q01DX009 (ip), vehicle: saline with Tween-80) is 98 % of control; the T/C (dose: 50.0 mg/kg/injection, schedule: Q01DX009 (ip), vehicle: saline with Tween-80) is 98 % of control; the T/C (dose: 100.0 mg/kg/injection, schedule: Q01DX009 (ip), vehicle: saline with Tween-80) was 102 [5 of 6 alive] and 106 % of control. For the same molecule, the survivor count is listed as 0 of 6 (dose: 200.0 mg/kg/injection, schedule: Q01DX009 (ip), vehicle: saline with Tween-80) and 0 of 6 (dose: 400.0 mg/kg/injection, schedule: Q01DX009 (ip), vehicle: saline with Tween-80).

As for `O=C1NC(=O)C(c2cccc(N(CCCl)CCCl)c2)N1` (configuration not stated), the T/C (dose: 12.5 mg/kg/injection, schedule: Q01DX001 (ip), vehicle: Klucel (hydroxypropylcellulose) (HPC)) was 97 and 100 % of control; the T/C (dose: 25.0 mg/kg/injection, schedule: Q01DX001 (ip), vehicle: Klucel (hydroxypropylcellulose) (HPC)) was 106 and 109 % of control; the T/C (dose: 50.0 mg/kg/injection, schedule: Q01DX001 (ip), vehicle: Klucel (hydroxypropylcellulose) (HPC)) is 106 and 109 % of control; the T/C (dose: 100.0 mg/kg/injection, schedule: Q01DX001 (ip), vehicle: Klucel (hydroxypropylcellulose) (HPC)) was 125, 127, 129 % of control. Also, the survivor count by setting is: (dose: 200.0 mg/kg/injection, schedule: Q01DX001 (ip), vehicle: Klucel (hydroxypropylcellulose) (HPC)) 6 of 6; (dose: 400.0 mg/kg/injection, schedule: Q01DX001 (ip), vehicle: Klucel (hydroxypropylcellulose) (HPC)) 6 of 6.

Take `Cc1cc(Cl)ccc1Nc1c([N+](=O)[O-])cc([N+](=O)[O-])cc1[N+](=O)[O-]`: the T/C was 100 % of control [survivor count not shown] (dose: 100.0 mg/kg/injection, schedule: Q04DX003 (ip), vehicle: saline); 100 % of control [survivor count not shown] (dose: 200.0 mg/kg/injection, schedule: Q04DX003 (ip), vehicle: saline); 103 % of control [survivor count not shown] (dose: 400.0 mg/kg/injection, schedule: Q04DX003 (ip), vehicle: saline).

As to `Nc1cc([As]=O)ccc1O` (configuration not stated), the T/C was 101 % of control (dose: 12.5 mg/kg/injection, schedule: Q01DX009 (ip), vehicle: saline); 93 % of control (dose: 25.0 mg/kg/injection, schedule: Q01DX009 (ip), vehicle: saline); 97 % of control [8 of 10 alive] (dose: 50.0 mg/kg/injection, schedule: Q01DX009 (ip), vehicle: saline). Moreover, the survivor count (dose: 75.0 mg/kg/injection, schedule: Q01DX009 (ip), vehicle: saline) is recorded as 0 of 10.

For the molecule `F[PH+](F)F.F[PH+](F)F.F[PH+](F)F.F[PH+](F)F.[Pt]`, the T/C is, setting by setting: (dose: 3.12 mg/kg/injection, schedule: Q04DX003 (ip), vehicle: other) 96 % of control; (dose: 6.25 mg/kg/injection, schedule: Q04DX003 (ip), vehicle: other) 97 % of control; (dose: 12.5 mg/kg/injection, schedule: Q04DX003 (ip), vehicle: other) 94 % of control; (dose: 25.0 mg/kg/injection, schedule: Q04DX003 (ip), vehicle: other) 96 % of control; (dose: 50.0 mg/kg/injection, schedule: Q04DX003 (ip), vehicle: other) 102 % of control [5 of 6 alive]. Moreover, the survivor count is listed as 0 of 6 (dose: 100.0 mg/kg/injection, schedule: Q04DX003 (ip), vehicle: other) and 0 of 6 (dose: 200.0 mg/kg/injection, schedule: Q04DX003 (ip), vehicle: other).

In the case of `CS(=O)(=O)OCC1CCOP(=O)(N(CCCl)CCCl)N1` (configuration not stated), the T/C under setting [1] is 103 and 106 % of control; the T/C under setting [2] was 101 and 103 % of control; the T/C under setting [3] was 97 and 100 % of control; the T/C under setting [4] is 97 and 103 % of control; the T/C under setting [5] is 101 and 103 % of control; the T/C under setting [6] is 100 and 101 % of control. For the same molecule, the T/C under setting [7] is 95 and 100 % of control.

On to `C1CN1.NC(CO)C(=O)O` (configuration not stated), for which the T/C is, setting by setting: (dose: 20.0 mg/kg/injection, schedule: Q01DX001 (ip), vehicle: saline) 109 % of control; (dose: 40.0 mg/kg/injection, schedule: Q01DX001 (ip), vehicle: saline) 97 % of control.

`NP(=O)(OCCC1CO1)N(CCCl)CCCl` (configuration not stated): the T/C is, setting by setting: under setting [1], 98 % of control; under setting [2], 101 % of control; under setting [3], 109 % of control; under setting [4], 101 % of control; under setting [5], 97 % of control; under setting [6], 104 % of control. Besides, the T/C under setting [7] was 106 % of control.

`F[P-](F)(F)(F)(F)F.NC(=O)C1CC[N-]CC1.[NH2-].[NH2-].[NH2-].[NH2-].[NH2-].[Ru+8]`: the T/C is 101 % of control (dose: 3.13 mg/kg/injection, schedule: Q04DX003 (ip), vehicle: water); 104 % of control (dose: 6.25 mg/kg/injection, schedule: Q04DX003 (ip), vehicle: water); 91 % of control (dose: 12.5 mg/kg/injection, schedule: Q04DX003 (ip), vehicle: water); 93 % of control (dose: 25.0 mg/kg/injection, schedule: Q04DX003 (ip), vehicle: water); 96 % of control (dose: 50.0 mg/kg/injection, schedule: Q04DX003 (ip), vehicle: water); 96 % of control (dose: 100.0 mg/kg/injection, schedule: Q04DX003 (ip), vehicle: water). Further, the survivor count (dose: 200.0 mg/kg/injection, schedule: Q04DX003 (ip), vehicle: water) is listed as 0 of 6.

Consider `[N-]=[N+]=NCC(O)CN=[N+]=[N-]` (configuration not stated), for which the survivor count is on record as 4 of 6 (dose: 75.0 mg/kg/injection, schedule: Q01DX009 (ip), vehicle: saline with Tween-80); 0 of 6 (dose: 150.0 mg/kg/injection, schedule: Q01DX009 (ip), vehicle: saline with Tween-80); 0 of 6 (dose: 300.0 mg/kg/injection, schedule: Q01DX009 (ip), vehicle: saline with Tween-80).
